{"source": "patent US12133851B2", "about": "“Treatment of cholangiocarcinoma” (Janssen Pharmaceutica NV, priority 2018, dated 2024)", "key": {"[1]": {"system": "advanced cholangiocarcinoma subjects with FGFR alterations", "method": "Tumor assessments: Conducted every 8 (±1) weeks up to 1 year from start of study drug, then every 12 (±1) weeks thereafter until the patient dies, or withdrawal of consent or conclusion of the study, whichever occurs first.\nORR (complete response [CR] or partial response [PR]) and disease control rate (DCR) was calculated with 95% CI.\nPFS was represented with descriptive summary statistics; Kaplan-Meier method was used for evaluation."}, "[2]": {"system": "patients with FGFR-aberrant cholangiocarcinoma"}, "[3]": {"conditions": "Erdafitinib 8 mg (QD), N = 11"}, "[4]": {"conditions": "snapshot as of 20 Mar. 2018, 8 mg qd"}}, "note": "Where two headings read alike, the source gives them in different places."}
{"molecule": "COc1cc(OC)cc(N(CCNC(C)C)c2ccc3ncc(-c4cnn(C)c4)nc3c2)c1", "note": "[erdafitinib, N-(3,5-dimethoxy-phenyl)-N′-(1-methylethyl)-N-[3-(1-methyl-1H-pyrazol-4-yl)quinoxalin-6-yl]ethane-1,2-diamine]", "values": [{"measurement": "Median PFS (progression free survival)", "setting": "[1]; as of 20 Aug. 2018, 95% CI 1.87, NE", "result": 5.59, "unit": "months"}, {"measurement": "median duration of response (DOR)", "setting": "[1]; as of 20 Aug. 2018, 95% CI 3.65, 12.16", "result": 3.94, "unit": "months"}, {"measurement": "clinical activity in patients with FGFR-aberrant advanced cholangiocarcinoma", "setting": "[1]; conclusion of snapshot 20 Mar. 2018", "result": "encouraging clinical activity"}, {"measurement": "PFS duration", "setting": "[1]; one PR patient with a FGFR2-KIAA1598 fusion", "result": 5.59, "unit": "months"}, {"measurement": "FGFR alterations of participants with confirmed or unconfirmed partial response", "setting": "[1]; [4]", "result": "participants with FGFR2-KIAA1598 and DTWD2-FGFR2 fusions, with ESR2-FGFR2 fusion, with FGFR2 C390>YS mutation and with FGFR2-MGEA5 fusion"}, {"measurement": "FGFR alterations of participants with stable disease", "setting": "[1]; [4]", "result": "participants with FGFR2-BICC1 fusion, with FGFR2 fusion with SBNO2 partner, with FGFR2 N549K mutation, and with FGFR2-KIAA1598 fusion"}, {"measurement": "median duration of response", "setting": "[2]; 9 mg QD or 10 mg intermittent, heavily pretreated population", "result": 11.4, "unit": "months"}, {"measurement": "median duration of response", "setting": "[2]; median follow-up 5.5 mo, 95% CI 9.9 to 12.9 mo", "result": 11.4, "unit": "mo"}, {"measurement": "Drug-related TEAE Nail discolouration, Any grade", "setting": "[3]", "result": 2, "unit": "N"}, {"measurement": "Drug-related TEAE Nail discolouration, ≥Grade 3", "setting": "[3]", "result": 1, "unit": "N"}]}
